In PubChem BioAssay AID328 (DTP/NCI, 2004):
The list shows only some results of the screen, not a fair sample: it gathers tests that were run many times, whatever their T/C, doses with no T/C, and many T/C values between a quarter and a half above the control. Further doses and runs are listed elsewhere. T/C is the treated group as % of the vehicle group. Some doses have a count of surviving animals in place of a T/C: the source files T/C as zero there, which appears to mark a toxic dose or a test without result, not a measured value. Some survivor counts are full or nearly so, which does not show that the dose was tolerated: the source hardly ever lists a survival T/C far under the control, and the zero likely stands for such cases as well. Survivors were counted at the toxicity check, usually on the fifth day, unless a day is given; later deaths do not show. Schedules are NCI's codes, read here as Q, the interval in days (D) or hours (H), X, the number of doses. Where survival is the endpoint, this PubChem deposit counts one and a half times the control or more as active, and values a quarter to a half above the control carry no call in these data; other NCI protocols may use other cut-offs. Brackets with × give the number of equal values in this list. Some T/C values are followed by the survivors on the day toxicity was checked, most often the fifth; where none is given, no animal had died by that day. Some entries were tested several times; the values are given in rising order.

Tested on: BDF1 mice, P388 leukemia ip, median survival T/C
Assay: NCI In Vivo Anticancer Drug Screen. Data for tumor model P388 Leukemia (intraperitoneal) in B6D2F1 (BDF1) mice
Details: T/C endpoint: median survival time, higher T/C = longer survival
How it was run: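 T/C = treated-group survival ÷ vehicle-control survival; tumour transplanted into mice before dosing.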

For `CCC1/C=C/C=C/CC(C)C(O)C(C)(O)C(=O)C(C)C(O)C(C)C(=O)C(C)C(O)C(C)/C=C/C(=O)OC2C(C)C(CC1)OC1(OC(CC(C)O)C(C)CC1=O)C2C` (configuration not stated) (tested in a mixture with another compound), the survivor count (dose: 1.2 mg/kg/injection, schedule: Q01DX010 (ip), vehicle: saline) was 1 of 6, the survivor count (dose: 2.4 mg/kg/injection, schedule: Q01DX010 (ip), vehicle: saline) was 0 of 6 and the survivor count (dose: 2.5 mg/kg/injection, schedule: Q01DX010 (ip), vehicle: carboxymethylcellulose (CMC)) was 1 of 6. The survivor count (dose: 4.8 mg/kg/injection, schedule: Q01DX010 (ip), vehicle: saline) was 0 of 6, the survivor count (dose: 5.0 mg/kg/injection, schedule: Q01DX010 (ip), vehicle: carboxymethylcellulose (CMC)) was 2 of 6 and the survivor count (dose: 10.0 mg/kg/injection, schedule: Q01DX009 (ip), vehicle: saline) was 3 of 6. For the same compound, the survivor count (dose: 10.0 mg/kg/injection, schedule: Q01DX010 (ip), vehicle: carboxymethylcellulose (CMC)) was 1 of 6, the survivor count (dose: 20.0 mg/kg/injection, schedule: Q01DX010 (ip), vehicle: carboxymethylcellulose (CMC)) was 0 of 6 and the T/C (dose: 75.0 micrograms/kg/injection, schedule: Q01DX010 (ip), vehicle: saline) was 125 % of control.

`O=[N+]([O-])c1ccc(C2OC2c2ccccc2)cc1` (configuration not stated) was tested, and the survivor count (dose: 200.0 mg/kg/injection, schedule: Q04DX003 (ip), vehicle: Klucel (hydroxypropylcellulose) (HPC)) was 6 of 6.

In the case of `O=C(/C=C(\Cl)C(=O)NO)NO`, the T/C (dose: 25.0 mg/kg/injection, schedule: Q01DX009 (ip), vehicle: saline) is reported as 131 % of control, the T/C (dose: 50.0 mg/kg/injection, schedule: Q01DX009 (ip), vehicle: saline) is reported as 127 % of control and the T/C (dose: 66.0 mg/kg/injection, schedule: Q01DX009 (ip), vehicle: saline) is reported as 127 and 131 % of control [5 of 6 alive]. The T/C (dose: 100.0 mg/kg/injection, schedule: Q01DX009 (ip), vehicle: saline) was 127 % of control (2×) and the T/C (dose: 150.0 mg/kg/injection, schedule: Q01DX009 (ip), vehicle: saline) was 127 and 145 % of control [4 of 6 alive].

For `Clc1ncnc2c1ncn2C1CCCO1` (configuration not stated), the survivor count (dose: 400.0 mg/kg/injection, schedule: Q04DX003 (ip), vehicle: saline) was 1 of 6.

`CC1(C)C(N2CCOCC2)C(c2ccccc2)S1(=O)=O` (configuration not stated) was tested, and the survivor count (dose: 200.0 mg/kg/injection, schedule: Q01DX001 (ip), vehicle: saline with Tween-80) was 5 of 6.
